This passage reports cell viability results from the supplement of paper PMC3682954.

Several values for one entry are separate records, joined by “and”; a condition that tells them apart may be missing. Identical values can stand only once. Counter-ions that a name gives are not always drawn. ± gives the standard deviation of the averaged measurements. The list shows a part of the results. Repeats are few or missing, and single values can be far off.

This assay deals with RAW 264.7. The assay can be described thus: cell viability (MTT) relative to vehicle control; higher = more viable cells. The settings on record: stimulus: HMGB1 5 ug/ml, 18 h.
Where [1] appears, read: compound concentration: 1 ug/ml.

For the compound `O=C(O)CCCO`, under “compound concentration: 3 uM”, the cell viability turned out to be 107%. On the same count and under the same terms, with `N[C@]1(C(=O)O)CC[C@H](C(=O)O)C1` (racemic) [trans-(±)-ACPD] the figure was 113%; with `CC(NC(C)(C)C)C(=O)c1cccc(Cl)c1` (stereo unspecified) [Bupropion hydrochloride], 106 ± 10%; with `CC(NC(C)(C)C)C(=O)c1cccc(Cl)c1` (stereo unspecified), 98.3% and 87% and 112%.

Take `CC(NC(C)(C)C)C(=O)c1cccc(Cl)c1` (stereo unspecified) [Amfebutamone]: the cell viability (compound concentration: 3 uM) turned out to be 103%. `CN(C)Cc1c[nH]c2c(OCc3ccccc3)cccc12` [7-Benzyloxygramine]: under setting [1], the cell viability stood at 100%. For the compound `Oc1ccc2c3c1O[C@H]1c4[nH]c5ccccc5c4C[C@@]4(O)[C@@H](C2)N(CC2CC2)CC[C@]314` [Naltrindole hydrochloride], the cell viability (compound concentration: 3 uM) was 101%. Same read-out and setting: then `Oc1ccc2c3c1O[C@H]1c4[nH]c5ccccc5c4C[C@@]4(O)[C@@H](C2)N(CC2CC2)CC[C@]314` [Naltrindole], with 108 ± 14%; and `NCC(CC(=O)O)c1ccc(Cl)cc1` (stereo unspecified), with 108%.

As for `CN1CC[C@@]2(C)c3cc(O)ccc3N(C)C12` (single isomer, unassigned; (-)) [(-)-Eseroline fumarate], the cell viability was found to be 97.6% under setting [1] and 105% (compound concentration: 3 uM). Take `CC(C)[C@]12O[C@H]1[C@@H]1O[C@]13[C@]1(O[C@H]1C[C@H]1C4=C(CC[C@@]13C)C(=O)OC4)[C@@H]2O`: the cell viability (compound concentration: 3 uM) was found to be 2.31%.

Turning to `CC(=O)[C@H]1CC[C@H]2[C@@H]3CC[C@H]4C[C@H](O)CC[C@]4(C)[C@H]3CC[C@]12C` [5alpha-Pregnan-3alpha-ol-20-one], the cell viability (compound concentration: 3 uM) is 111%.

Turning to `C=CCSSCC=C`, for the setting “compound concentration: 3 uM”, the cell viability came to 137%.

Regarding `CN1CCC2(C)c3cc(O)ccc3N(C)C12` (single isomer, unassigned; (-)) [(-)-Eseroline fumarate salt], under “compound concentration: 3 uM”, the cell viability was 99.3%.

In the case of `CN1CCC2(C)c3cc(O)ccc3N(C)C12` (single isomer, unassigned; (-)) [(-)-Eseroline, Fumarate salt], under setting [1], the cell viability is 94.9%. Regarding `NC1=NC(=O)C(c2ccccc2)O1` (stereo unspecified) [Pemoline], the cell viability (compound concentration: 3 uM) was found to be 96.2%.

On to `CCOC(=O)C1(c2ccccc2)CCN(CCC(C#N)(c2ccccc2)c2ccccc2)CC1`, for which the cell viability (compound concentration: 3 uM) is 99.7%. For `CC[C@@H]1C=CC=CC[C@H](C)[C@@H](O)[C@@H](C)C(=O)[C@H](C)[C@@H](O)[C@H](C)C(=O)[C@H](C)[C@@H](O)[C@H](C)C=CC(=O)O[C@H]2[C@@H](C)[C@@H](CC1)O[C@@]1(CC[C@@H](C)[C@@H](C[C@H](C)O)O1)[C@@H]2C`, the cell viability (compound concentration: 3 uM) stood at 84.2%. Still for that read-out and setting: then `CC(=O)[C@H]1CC[C@H]2[C@@H]3CC[C@H]4C[C@](C)(O)CC[C@]4(C)[C@H]3CC[C@]12C` [Ganaxolone], with 107%. Turning to `CN1[C@@H]2C[C@@H](OC(=O)[C@H](CO)c3ccccc3)C[C@H]1[C@@H]1O[C@@H]12`, for the setting “compound concentration: 3 uM”, the cell viability amounted to 116%. Still for that read-out and setting: then `CN1[C@@H]2C[C@@H](OC(=O)[C@H](CO)c3ccccc3)C[C@H]1[C@@H]1O[C@@H]12` [Scopolamine hydrochloride], with 112%. Still for that read-out and setting: then `CN1[C@@H]2C[C@@H](OC(=O)[C@H](CO)c3ccccc3)C[C@H]1[C@@H]1O[C@@H]12` [(-)-Scopolamine hydrobromide], with 119%. The same measure, in the same setting: with `CN1[C@@H]2C[C@@H](OC(=O)[C@H](CO)c3ccccc3)C[C@H]1[C@@H]1O[C@@H]12` [Scopolamine] the figure was 103%; with `C#C[C@]1(O)CC[C@H]2[C@@H]3CCC4=CC(=O)CCC4=C3C=C[C@@]21CC` [Gestrinone], 108 ± 1.3%.

As to `CN[C@@H](C)[C@@H](O)c1ccccc1`, the cell viability (compound concentration: 3 uM) is 104%. The same measure, in the same setting: with `CN1C[C@H](C(=O)N[C@]2(C)O[C@@]3(O)[C@@H]4CCCN4C(=O)[C@H](Cc4ccccc4)N3C2=O)C=C2c3cccc4[nH]cc(c34)C[C@H]21` [Ergotamine] the figure was 127%; with `CN1C[C@H](C(=O)N[C@]2(C)O[C@@]3(O)[C@@H]4CCCN4C(=O)[C@H](Cc4ccccc4)N3C2=O)C=C2c3cccc4[nH]cc(c34)C[C@H]21`, 106%. Same read-out and setting: with `NCC(CC(=O)O)c1ccc(Cl)cc1` (racemic) [(±)-Baclofen] the figure was 108%. Still for that read-out and setting: with `NCC(CC(=O)O)c1ccc(Cl)cc1` (racemic) [Baclofen (R,S)] the figure was 92.6%; with `N[C@@H]1C[C@H]1c1ccccc1` [Tranylcypromine hydrochloride], 103 ± 5.1%.

Regarding `[O-][n+]1ccccc1[S-].[O-][n+]1ccccc1[S-].[Zn+2]`, the cell viability (compound concentration: 3 uM) turned out to be 89.8%. On to `NC(CCCCCP(=O)(O)O)C(=O)O` (racemic) [(±)-2-Amino-7-phosphonoheptanoic acid], for which the cell viability (compound concentration: 3 uM) was 105%. Consider `C[C@]12C[C@H]3S[C@H]3C[C@@H]1CC[C@@H]1[C@@H]2CC[C@]2(C)[C@@H](O)CC[C@@H]12` [Epitiostanol], for which the cell viability (compound concentration: 3 uM) was 97.8%.

With `COP(=O)(OC)C(O)C(Cl)(Cl)Cl` (stereo unspecified), the cell viability (compound concentration: 3 uM) stood at 115%.

For `COP(=O)(OC)C(O)C(Cl)(Cl)Cl` (stereo unspecified) [Trichlorfon], the cell viability (compound concentration: 3 uM) amounted to 94.3%. Still for that read-out and setting: with `CCCC(C)C1(CC)C(=O)NC(=O)NC1=O` (stereo unspecified) [Pentobarbital] the figure was 110%; with `c1ccc(Cn2ccnc2)cc1`, 101%; with `C=CCN1CC[C@]23c4c5ccc(O)c4O[C@H]2C(=O)CC[C@@]3(O)[C@H]1C5` [Naloxone], 111%.

With `C=CCN1CC[C@]23c4c5ccc(O)c4O[C@H]2C(=O)CC[C@@]3(O)[C@H]1C5` [Naloxone hydrochloride], the cell viability (compound concentration: 3 uM) is 102 ± 8%. On the same count and under the same terms, then `C=CCN1CC[C@]23c4c5ccc(O)c4O[C@H]2C(=O)CC[C@@]3(O)[C@H]1C5`, with 108%.

The term cell viability denotes a read-out of living cells in per cent, often relative to untreated cells.
